Reference: the supplement of paper PMC5949888
Most values lie at the floor of the assay. Slopes are relative: functional sequences can read slightly below zero.

System: Saccharomyces cerevisiae PS128 hsf1 delta, HSF1(1-493) fusion
Assay: growth estimate (transactivation domain function in HSF1 fusion, heat-shock survival) (a.u. (slope of normalised read count over time)); higher = stronger growth at 37°C, i.e. more transactivation activity
Conditions: library: random library
Method: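 Random 60-nt DNA library encoding peptides of up to 20 aa, fused to the C-terminus of yeast HSF1 residues 1-493 (C-terminal TAD deleted) and expressed from the native HSF1 promoter on a CEN plasmid in hsf1-deleted S. cerevisiae PS128. Cells were selected at 37°C on -trp 5-FOA plates for 0, 2, 4, 6 and 8 days and amplicons were sequenced. Growth estimate is the slope of a robust linear fit of total-sum-normalised read counts (normalised to the first time point) over time, using at least 2 replicates. Sequences are classed functional (TAD activity) above a threshold of -0.13, set from stop-codon control sequences.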

Row | Substance | growth estimate
1 | AYIWRSMNCLSRSENRPGSQ | < -0.25
2 | AYMLGEVSYFAGWDQGLVLC | < -0.25
3 | AYPLAGFLIYSCCCVRGVLG | -0.229
4 | AYPPVAGMVTSIVS | < -0.25
5 | AYPQTFSFGLESKLDSSTFV | < -0.25
6 | AYRLRDRQCSGVNACGSADW | < -0.25
7 | AYRRLKRLD | < -0.25
8 | AYRVLNLSVRHP | < -0.25
9 | AYSQLGEGTRAINS | < -0.25
10 | AYTCRRMLRGESSGIVSLTV | < -0.25
11 | AYTDCLPLCRSSTVVNRPNA | < -0.25
12 | AYTVGDWFCAQRRRNVRGMF | < -0.25
13 | AYWIRH | -0.246
14 | CAAEYLTWAEDEAVAVYPHS | < -0.25
15 | CAAFSQETSSLRASPRVTSK | < -0.25
16 | CAARGS | < -0.25
17 | CAC | < -0.25
18 | CACQFVREGPQSKSICSLST | < -0.25
19 | CALF | < -0.25
20 | CALLNYHPK | < -0.25
21 | CALWRV | < -0.25
22 | CANMQSNSERYVLSGDPHQY | < -0.25
23 | CANTGCNSDPKGFAYIRP | < -0.25
24 | CANVLK | < -0.25
25 | CARLSRLTHTTSWWSCRGNQ | < -0.25

Row | Substance | growth estimate
26 | CARSW | < -0.25
27 | CASSGVDSFLCRPTMLKPSS | < -0.25
28 | CASSYARN | < -0.25
29 | CATGD | < -0.25
30 | CATRRNSLFLTSTTFHSACI | < -0.25
31 | CAVKERRPLS | < -0.25
32 | CAYLR | < -0.25
33 | CAYSSCPGLMVFCGAYVLG | < -0.25
34 | CCFAY | < -0.25
35 | CCFTSCQGPSAGDRQHPWCG | < -0.25
36 | CCLASGV | < -0.25
37 | CCLTLGISSRGYVSGPRVEE | < -0.25
38 | CCLTRWHNI | < -0.25
39 | CCQICGIRVTLLSGMVMVLG | < -0.25
40 | CCRNRGLSETSSADCTECRP | < -0.25
41 | CCRRYSLRVHRDQMS | < -0.25
42 | CCSGADSEARRRAGTASLCL | < -0.25
43 | CCSSL | -0.209
44 | CCTVGLGQDVKTTGV | < -0.25
45 | CDFRHRR | < -0.25
46 | CDFYV | < -0.25
47 | CDHRRAFA | < -0.25
48 | CDSKGPRL | < -0.25
49 | CDSLGNS | < -0.25
50 | CDSPRIDLCTPLATSV | < -0.25

Row | Substance | growth estimate
51 | CDVCHGGDLWRCYSKVLSGT | < -0.25
52 | CDVPTISERTRLQSRHHVYV | < -0.25
53 | CECWGTVIDQHWRRPRG | < -0.25
54 | CEFTNVLCPSIAVNQCEPFL | < -0.25
55 | CEGGHYN | < -0.25
56 | CEIAKRKRAGPVGGPPGNGP | < -0.25
57 | CEL | < -0.25
58 | CELAVTLLGSVMVFCANH | < -0.25
59 | CELNVASNGPLLARHIGTQC | < -0.25
60 | CENCIRSRV | < -0.25
61 | CENQDACARSQWGSADNEPG | < -0.25
62 | CERIKVRAQLYNCVTGATSI | < -0.25
63 | CEVGVS | < -0.25
64 | CEVVRTLVHPVTWIDLSEQC | < -0.25
65 | CEVVYSVTGRLFLALH | < -0.25
66 | CFG | < -0.25
67 | CFGCSHIGRTCDKGTVTLSC | < -0.25
68 | CFKESQLCRAVSTSRSREGR | < -0.25
69 | CFVVVGKS | < -0.25
70 | CFYARQNSAQGTIRHIWLQA | < -0.25
71 | CGALSGI | < -0.25
72 | CGAY | < -0.25
73 | CGDPSVGYHRTSFSQLRHAL | < -0.25
74 | CGDQKGVIA | < -0.25
75 | CGEKIAAFYAVAIRSGPVAN | < -0.25

Row | Substance | growth estimate
76 | CGESGTRGLWNRGTHAGTAR | < -0.25
77 | CGGCGPSYRGLVVQNKYKDR | < -0.25
78 | CGGEISCRKAASSRMILTVR | < -0.25
79 | CGGQGRVPRGINWIIVLN | < -0.25
80 | CGGSERGSSGGEGV | < -0.25
81 | CGIRSGGWK | < -0.25
82 | CGITSLAIVPEIVCRPSRPN | < -0.25
83 | CGLAWWHRRVVWAVKKLQNW | < -0.25
84 | CGLGREGF | < -0.25
85 | CGNYR | < -0.25
86 | CGPSFCMSCARERAKSGGVG | < -0.25
87 | CGPSSKGWCVP | < -0.25
88 | CGQIELAWLRKFVVIARRLK | < -0.25
89 | CGQKTQVHIRMTRNSRLHNW | < -0.25
90 | CGRARGVPARAGR | < -0.25
91 | CGRCTVGSILPLA | < -0.25
92 | CGRGHTG | < -0.25
93 | CGRKVSRINVVSR | < -0.25
94 | CGSFNSASNSRSEPTLTLAA | < -0.25
95 | CGSGVCPGIWAVRVWSRPDL | < -0.25
96 | CGSSNVHLIGSGDCTICGNC | < -0.25
97 | CGSTLAVTQA | < -0.25
98 | CGTEAEFVAYVNVRWGRWQS | < -0.25
99 | CGTSPSYTCVKAA | 0.0891
100 | CGVATRV | < -0.25

Row | Substance | growth estimate
101 | CHECVAEYF | < -0.25
102 | CHESPSVNSLRYISRVPGSP | < -0.25
103 | CHHSRSP | < -0.25
104 | CHLANGGNFVTLMVV | < -0.25
105 | CHLRLQVDSGLLCPNHRYSW | < -0.25
106 | CHLSTRWMRHDMVRTSICVT | < -0.25
107 | CHMMKISS | < -0.25
108 | CHPIIPNG | < -0.25
109 | CHRFINTLLSRMGSCYPAKR | < -0.25
110 | CHRYGVCTPRCNSLVTVCRT | < -0.25
111 | CHSRVV | < -0.25
112 | CHVRAFNFTLMCAAHRRTTD | < -0.25
113 | CIELEAYVQIQAVVAGTNSR | < -0.25
114 | CIETSGGVGVMDCRNEDYGG | < -0.25
115 | CIFCIVRRMTVGRDGTRRWP | < -0.25
116 | CIGNLGLLHECERPLLGFSY | < -0.25
117 | CIGPVLVCTVSNTR | < -0.25
118 | CINMVAGVATLSMPRPGPRV | < -0.25
119 | CIRGGKEPMEWYEDILVAHR | < -0.25
120 | CIRT | < -0.25
121 | CISDDHVFHCVTSRGYVRGP | < -0.25
122 | CISKSTGWDDQYRAI | < -0.25
123 | CIWGSRVK | < -0.25
124 | CKALLAKP | < -0.25
125 | CKMRCLDWVGASPF | < -0.25

Row | Substance | growth estimate
126 | CKPRIPPASVILTVCQLGCV | < -0.25
127 | CKRGHLYLLGVGRGHLVRQF | < -0.25
128 | CKRHNNCPLP | < -0.25
129 | CKRRCD | < -0.25
130 | CKSG | < -0.25
131 | CKSQAPRKLP | < -0.25
132 | CKSSRRWREQRV | < -0.25
133 | CKVSRERSRAHVLPR | < -0.25
134 | CLANGAVARVFRIFVQCERQ | < -0.25
135 | CLAYLFRYCLV | < -0.25
136 | CLCAGSGNFTRI | < -0.25
137 | CLCE | < -0.25
138 | CLCPILVPE | -0.198
139 | CLDYGGISG | < -0.25
140 | CLELLREVVRKLSIPWDFGV | < -0.25
141 | CLENMGQ | < -0.25
142 | CLFCLI | -0.219
143 | CLFVGMSTALGLLFASEHA | < -0.25
144 | CLG | < -0.25
145 | CLITEGRRANC | < -0.25
146 | CLKNTFATHCTVVVWGRTPY | < -0.25
147 | CLL | < -0.25

Nos. 49 through 91, quoted:
Row | Substance | growth estimate
49 | CDSLGNS | < -0.25
50 | CDSPRIDLCTPLATSV | < -0.25
51 | CDVCHGGDLWRCYSKVLSGT | < -0.25
52 | CDVPTISERTRLQSRHHVYV | < -0.25
53 | CECWGTVIDQHWRRPRG | < -0.25
54 | CEFTNVLCPSIAVNQCEPFL | < -0.25
55 | CEGGHYN | < -0.25
56 | CEIAKRKRAGPVGGPPGNGP | < -0.25
57 | CEL | < -0.25
58 | CELAVTLLGSVMVFCANH | < -0.25
59 | CELNVASNGPLLARHIGTQC | < -0.25
60 | CENCIRSRV | < -0.25
61 | CENQDACARSQWGSADNEPG | < -0.25
62 | CERIKVRAQLYNCVTGATSI | < -0.25
63 | CEVGVS | < -0.25
64 | CEVVRTLVHPVTWIDLSEQC | < -0.25
65 | CEVVYSVTGRLFLALH | < -0.25
66 | CFG | < -0.25
67 | CFGCSHIGRTCDKGTVTLSC | < -0.25
68 | CFKESQLCRAVSTSRSREGR | < -0.25
69 | CFVVVGKS | < -0.25
70 | CFYARQNSAQGTIRHIWLQA | < -0.25
71 | CGALSGI | < -0.25
72 | CGAY | < -0.25
73 | CGDPSVGYHRTSFSQLRHAL | < -0.25
74 | CGDQKGVIA | < -0.25
75 | CGEKIAAFYAVAIRSGPVAN | < -0.25
76 | CGESGTRGLWNRGTHAGTAR | < -0.25
77 | CGGCGPSYRGLVVQNKYKDR | < -0.25
78 | CGGEISCRKAASSRMILTVR | < -0.25
79 | CGGQGRVPRGINWIIVLN | < -0.25
80 | CGGSERGSSGGEGV | < -0.25
81 | CGIRSGGWK | < -0.25
82 | CGITSLAIVPEIVCRPSRPN | < -0.25
83 | CGLAWWHRRVVWAVKKLQNW | < -0.25
84 | CGLGREGF | < -0.25
85 | CGNYR | < -0.25
86 | CGPSFCMSCARERAKSGGVG | < -0.25
87 | CGPSSKGWCVP | < -0.25
88 | CGQIELAWLRKFVVIARRLK | < -0.25
89 | CGQKTQVHIRMTRNSRLHNW | < -0.25
90 | CGRARGVPARAGR | < -0.25
91 | CGRCTVGSILPLA | < -0.25
